Consider eleven targets from the supplement of paper PMC12819154, “High-throughput peptide-centric local stability assay extends protein–ligand identification to membrane proteins, tissues and bacteria” (Nature Structural & Molecular Biology, 2025).

Protein sequences, listed by entry. Tags and fused reporters are not part of them. Lines headed by an entry give the natural chain unless they say otherwise; changes in a name come on top.
UniProt Q9JJH1: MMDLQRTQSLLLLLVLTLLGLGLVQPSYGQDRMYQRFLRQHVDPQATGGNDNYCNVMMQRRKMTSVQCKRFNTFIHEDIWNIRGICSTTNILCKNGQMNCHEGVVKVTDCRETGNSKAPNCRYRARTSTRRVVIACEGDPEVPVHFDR
UniProt Q9NWG9: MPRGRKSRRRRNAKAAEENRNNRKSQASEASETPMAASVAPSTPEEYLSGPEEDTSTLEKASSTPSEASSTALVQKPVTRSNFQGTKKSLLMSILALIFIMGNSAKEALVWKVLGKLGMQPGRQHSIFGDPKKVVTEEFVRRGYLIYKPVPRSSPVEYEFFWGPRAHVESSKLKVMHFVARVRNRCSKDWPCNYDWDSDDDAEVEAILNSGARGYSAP
UniProt Q9QUR7, whole entry: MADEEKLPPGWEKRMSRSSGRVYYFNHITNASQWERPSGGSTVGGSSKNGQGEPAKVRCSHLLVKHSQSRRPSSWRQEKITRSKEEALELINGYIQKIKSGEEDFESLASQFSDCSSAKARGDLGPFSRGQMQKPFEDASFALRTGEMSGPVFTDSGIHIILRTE
UniProt Q9JJ89: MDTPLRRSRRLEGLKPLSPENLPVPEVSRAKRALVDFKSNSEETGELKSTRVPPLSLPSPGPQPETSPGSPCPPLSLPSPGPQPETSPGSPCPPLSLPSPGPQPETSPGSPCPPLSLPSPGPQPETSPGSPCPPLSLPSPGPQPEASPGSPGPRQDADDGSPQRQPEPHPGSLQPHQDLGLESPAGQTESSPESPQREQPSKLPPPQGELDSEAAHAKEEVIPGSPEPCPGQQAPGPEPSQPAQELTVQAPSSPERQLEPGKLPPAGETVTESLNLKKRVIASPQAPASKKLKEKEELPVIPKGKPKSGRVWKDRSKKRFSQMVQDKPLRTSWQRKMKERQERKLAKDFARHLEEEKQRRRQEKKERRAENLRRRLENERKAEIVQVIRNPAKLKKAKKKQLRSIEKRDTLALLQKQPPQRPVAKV
UniProt Q9JIS8: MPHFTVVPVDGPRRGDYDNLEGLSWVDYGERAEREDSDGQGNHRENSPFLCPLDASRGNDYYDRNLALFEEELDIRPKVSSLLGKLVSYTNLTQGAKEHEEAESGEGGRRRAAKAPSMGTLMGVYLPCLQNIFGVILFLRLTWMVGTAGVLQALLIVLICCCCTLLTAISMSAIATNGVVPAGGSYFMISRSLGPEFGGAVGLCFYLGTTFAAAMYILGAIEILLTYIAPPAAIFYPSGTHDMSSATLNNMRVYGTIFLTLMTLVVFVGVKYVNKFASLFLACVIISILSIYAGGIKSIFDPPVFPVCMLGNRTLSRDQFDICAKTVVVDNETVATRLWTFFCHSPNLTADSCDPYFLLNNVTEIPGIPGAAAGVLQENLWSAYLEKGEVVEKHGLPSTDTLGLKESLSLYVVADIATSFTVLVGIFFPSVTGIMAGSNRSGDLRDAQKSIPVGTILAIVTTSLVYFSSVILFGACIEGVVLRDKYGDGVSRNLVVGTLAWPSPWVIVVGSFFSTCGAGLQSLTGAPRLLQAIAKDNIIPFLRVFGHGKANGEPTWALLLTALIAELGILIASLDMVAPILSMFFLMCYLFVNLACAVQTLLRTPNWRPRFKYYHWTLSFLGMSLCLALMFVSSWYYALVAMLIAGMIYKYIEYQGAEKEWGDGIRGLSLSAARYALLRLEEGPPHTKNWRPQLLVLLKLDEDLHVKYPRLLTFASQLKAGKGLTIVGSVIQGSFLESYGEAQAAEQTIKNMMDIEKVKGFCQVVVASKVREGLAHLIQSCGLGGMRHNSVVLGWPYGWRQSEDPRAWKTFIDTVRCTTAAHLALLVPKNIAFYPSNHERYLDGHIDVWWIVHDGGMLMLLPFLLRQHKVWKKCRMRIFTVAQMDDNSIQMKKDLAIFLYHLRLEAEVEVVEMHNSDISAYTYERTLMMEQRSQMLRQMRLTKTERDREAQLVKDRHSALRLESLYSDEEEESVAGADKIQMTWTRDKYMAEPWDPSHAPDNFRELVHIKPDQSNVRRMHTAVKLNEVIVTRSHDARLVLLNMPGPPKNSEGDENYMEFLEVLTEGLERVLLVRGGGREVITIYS
UniProt Q9JII1: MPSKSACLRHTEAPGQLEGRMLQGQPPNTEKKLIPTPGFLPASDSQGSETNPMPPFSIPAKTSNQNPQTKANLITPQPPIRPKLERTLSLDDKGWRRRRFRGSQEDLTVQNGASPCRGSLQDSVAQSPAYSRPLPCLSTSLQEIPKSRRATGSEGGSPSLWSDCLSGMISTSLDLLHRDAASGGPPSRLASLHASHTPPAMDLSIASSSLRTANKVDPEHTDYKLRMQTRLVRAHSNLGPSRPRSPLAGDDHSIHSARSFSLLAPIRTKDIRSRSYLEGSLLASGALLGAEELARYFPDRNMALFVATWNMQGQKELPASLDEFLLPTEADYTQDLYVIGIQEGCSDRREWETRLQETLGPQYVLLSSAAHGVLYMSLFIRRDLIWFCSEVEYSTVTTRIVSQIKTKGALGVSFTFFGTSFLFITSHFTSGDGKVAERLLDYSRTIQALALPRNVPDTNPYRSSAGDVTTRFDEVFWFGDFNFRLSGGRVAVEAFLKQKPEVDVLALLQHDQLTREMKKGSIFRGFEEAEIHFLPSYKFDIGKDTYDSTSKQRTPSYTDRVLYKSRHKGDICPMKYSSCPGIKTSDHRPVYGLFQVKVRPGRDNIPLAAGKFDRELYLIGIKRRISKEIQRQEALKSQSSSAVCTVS
UniProt Q9JIM3: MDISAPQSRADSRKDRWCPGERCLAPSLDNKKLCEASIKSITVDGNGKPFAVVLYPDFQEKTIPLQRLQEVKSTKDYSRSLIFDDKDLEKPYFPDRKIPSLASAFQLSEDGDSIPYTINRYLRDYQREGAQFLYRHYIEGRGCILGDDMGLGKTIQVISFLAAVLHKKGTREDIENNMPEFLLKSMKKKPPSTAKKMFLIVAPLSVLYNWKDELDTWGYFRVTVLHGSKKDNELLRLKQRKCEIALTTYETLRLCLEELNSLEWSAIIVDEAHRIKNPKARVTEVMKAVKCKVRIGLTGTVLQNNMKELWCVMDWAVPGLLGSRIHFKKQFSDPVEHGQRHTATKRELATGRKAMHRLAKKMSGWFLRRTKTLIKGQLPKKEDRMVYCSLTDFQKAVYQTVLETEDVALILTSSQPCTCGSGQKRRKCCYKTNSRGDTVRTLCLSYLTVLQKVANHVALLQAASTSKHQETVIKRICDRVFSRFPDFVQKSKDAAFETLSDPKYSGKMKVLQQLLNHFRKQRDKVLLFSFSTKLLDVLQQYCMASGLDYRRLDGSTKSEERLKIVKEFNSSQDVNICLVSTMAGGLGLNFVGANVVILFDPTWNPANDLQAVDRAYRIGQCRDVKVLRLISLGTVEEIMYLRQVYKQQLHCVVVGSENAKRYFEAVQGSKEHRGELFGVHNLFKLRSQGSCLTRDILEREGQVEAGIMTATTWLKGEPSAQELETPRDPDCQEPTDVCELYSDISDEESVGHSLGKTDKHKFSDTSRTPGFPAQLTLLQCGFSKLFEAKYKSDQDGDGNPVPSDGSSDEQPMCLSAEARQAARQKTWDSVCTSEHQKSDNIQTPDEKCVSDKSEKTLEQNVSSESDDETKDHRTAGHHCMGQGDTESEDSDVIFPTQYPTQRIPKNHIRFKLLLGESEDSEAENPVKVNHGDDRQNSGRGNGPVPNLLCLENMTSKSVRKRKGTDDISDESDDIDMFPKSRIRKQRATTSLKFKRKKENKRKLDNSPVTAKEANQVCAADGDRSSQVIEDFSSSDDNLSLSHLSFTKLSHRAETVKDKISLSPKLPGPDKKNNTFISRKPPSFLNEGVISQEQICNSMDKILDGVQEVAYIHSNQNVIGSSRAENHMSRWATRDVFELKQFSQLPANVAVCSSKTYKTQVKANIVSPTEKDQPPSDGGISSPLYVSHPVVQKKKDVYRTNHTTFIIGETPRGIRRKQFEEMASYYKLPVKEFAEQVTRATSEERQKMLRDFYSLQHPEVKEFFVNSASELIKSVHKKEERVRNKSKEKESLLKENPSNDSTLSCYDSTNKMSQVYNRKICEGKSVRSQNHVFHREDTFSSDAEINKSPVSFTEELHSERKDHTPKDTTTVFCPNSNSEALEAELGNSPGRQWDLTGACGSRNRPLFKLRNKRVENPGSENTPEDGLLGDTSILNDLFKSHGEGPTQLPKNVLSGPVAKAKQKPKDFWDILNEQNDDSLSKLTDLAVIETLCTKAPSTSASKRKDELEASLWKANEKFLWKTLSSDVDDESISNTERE
UniProt Q9QUR6: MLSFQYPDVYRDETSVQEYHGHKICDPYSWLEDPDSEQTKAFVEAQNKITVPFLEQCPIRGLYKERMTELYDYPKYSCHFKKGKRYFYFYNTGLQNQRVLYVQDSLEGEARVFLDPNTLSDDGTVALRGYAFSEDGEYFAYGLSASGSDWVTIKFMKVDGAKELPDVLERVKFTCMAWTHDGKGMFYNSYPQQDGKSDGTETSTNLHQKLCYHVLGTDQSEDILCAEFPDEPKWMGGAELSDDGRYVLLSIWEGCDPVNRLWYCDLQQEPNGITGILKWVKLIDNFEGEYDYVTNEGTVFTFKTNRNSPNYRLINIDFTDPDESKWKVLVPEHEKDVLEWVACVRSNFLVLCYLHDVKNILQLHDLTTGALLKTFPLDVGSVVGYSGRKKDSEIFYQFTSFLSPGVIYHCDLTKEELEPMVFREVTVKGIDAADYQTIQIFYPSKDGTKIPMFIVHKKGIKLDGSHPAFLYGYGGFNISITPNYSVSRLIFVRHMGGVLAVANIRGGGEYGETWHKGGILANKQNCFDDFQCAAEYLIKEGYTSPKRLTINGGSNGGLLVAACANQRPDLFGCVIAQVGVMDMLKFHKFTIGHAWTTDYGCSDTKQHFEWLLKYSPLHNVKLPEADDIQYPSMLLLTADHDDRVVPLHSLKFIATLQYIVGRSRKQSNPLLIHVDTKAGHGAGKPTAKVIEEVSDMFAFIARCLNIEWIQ
UniProt Q9ESW8: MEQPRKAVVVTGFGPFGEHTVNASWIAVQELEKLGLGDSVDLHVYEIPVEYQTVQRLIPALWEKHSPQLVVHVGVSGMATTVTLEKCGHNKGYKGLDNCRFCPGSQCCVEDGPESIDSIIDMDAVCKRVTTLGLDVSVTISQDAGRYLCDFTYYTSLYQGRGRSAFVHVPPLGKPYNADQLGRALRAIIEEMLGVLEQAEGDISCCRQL
UniProt Q9JK81: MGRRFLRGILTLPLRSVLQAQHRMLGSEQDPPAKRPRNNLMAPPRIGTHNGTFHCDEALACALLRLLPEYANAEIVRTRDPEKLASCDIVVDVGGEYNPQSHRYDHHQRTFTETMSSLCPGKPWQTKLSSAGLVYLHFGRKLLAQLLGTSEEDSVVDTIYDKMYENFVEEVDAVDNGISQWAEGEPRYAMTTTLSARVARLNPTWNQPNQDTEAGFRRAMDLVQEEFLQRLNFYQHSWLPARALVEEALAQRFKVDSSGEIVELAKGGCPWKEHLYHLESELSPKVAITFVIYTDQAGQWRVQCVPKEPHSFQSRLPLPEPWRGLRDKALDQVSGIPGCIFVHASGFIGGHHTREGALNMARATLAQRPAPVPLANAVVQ

This is one part of the list. Most entries show no effect beyond the scatter of the controls.

Compound in this experiment: CN[C@@H]1C[C@H]2O[C@@](C)([C@@H]1OC)n1c3ccccc3c3c4c(c5c6ccccc6n2c5c31)C(=O)NC4 [staurosporine]
The experiment is described as follows: log2 fold change of tryptic peptide abundance, ligand vs vehicle (limited proteolysis) (log2 ratio); higher = more trypsin-susceptible (destabilized). The settings on record: ligand concentration: 20 uM; sample: mouse liver crude lysate; replicate design: treated separately.
Regarding “UniProt Q9JJH1 (peptide sequence: GICSTTNILCK, peptide start residue: 84)”, the log2 fold change is 0.0788.
With “UniProt Q9NWG9 (peptide sequence: GYLIYKPVPR, peptide start residue: 143)” the figure was -0.321; with “UniProt Q9JLN9 (peptide sequence: LFDAPEVPLPSRK, peptide start residue: 1121)”, -0.421.
Take “UniProt Q9QUR7 (peptide sequence: NGQGEPAKVRCSHLLVK, peptide start residue: 49)”: the log2 fold change was determined as 0.406.
As to “UniProt Q9JJ89 (peptide sequence: AEIVQVIR, peptide start residue: 382)”, the log2 fold change was -0.306.
For the target “UniProt Q9JIS8 (peptide sequence: LVSYTNLTQGAKEHEEAESGEGGR, peptide start residue: 86)”, the log2 fold change is -0.308.
As to “UniProt Q9JII1 (peptide sequence: TANKVDPEHTDYK, peptide start residue: 212)”, the log2 fold change was 0.294.
Regarding “UniProt Q9JIM3 (peptide sequence: EANQVCAADGDR, peptide start residue: 1012)”, the log2 fold change was 0.238.
As for “UniProt Q9QUR6 (peptide sequence: VVPLHSLK, peptide start residue: 644)”, the log2 fold change is -0.0517.
For “UniProt Q9ESW8 (peptide sequence: LIPALWEK, peptide start residue: 57)”, the log2 fold change was -0.0474.
Turning to “UniProt Q9JK81 (peptide sequence: LNFYQHSWLPAR, peptide start residue: 231)”, the log2 fold change is -0.516.
